In patent publication US20140086924A1:
No constants are given. Whether binding was seen depends on the method and setting. Some entries that bind do so weakly or less than the wild type.

How the values were obtained:
[1] = target: full length Hsp90alpha (human) (UniProt P07900); assay: ELISA, peptide immobilized, recombinant Hsp90 added, detection with anti-Hsp90 (n=2); no blank bar on the sheet
[2] = target: full length Hsp90alpha (human) (UniProt P07900); assay: surface plasmon resonance

| Binder | binding [1] | binding [2] |
| --- | --- | --- |
| KHSSGCGFL [A85G] | binds |  |
| IDDHKKHSSGCAFL [Survivin Ile74-Leu87 peptide] |  | binds |
